From the supplement of paper PMC8728848
The other results are listed elsewhere or left out.

Experiments:
Assay in all cases: glycan array binding signal (z-score within array); higher = stronger binding
Conditions in all cases: glycan notation: IUPAC condensed, linker removed
[1] = molecular target: Neu5Ac(a2-3)Gal(b1-4)GlcNAc
Summary of the method: (§1)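 Glycan array data were curated from 3228 arrays in the Consortium for Functional Glycomics database and kept only where the protein sequence was available. Glycan names were converted to IUPAC-condensed notation, and columns mapping to the same glycan were averaged. The binding signal is a within-array Z-score, averaged across arrays of the same protein sequence at different concentrations or buffers and across linkers. Negative Z-scores can be read as non-binding.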

[2] = molecular target: Neu5Ac(a2-3)Gal(b1-4)GlcNAc(b1-2)Man(a1-3)[GlcNAc(b1-2)Man(b1-4)GlcNAc(b1-2)Man(a1-6)]Man(b1-4)GlcNAc(b1-4)GlcNAc
Summary of the method: as §1

[3] = molecular target: Neu5Ac(a2-3)Gal(b1-4)GlcNAc(b1-2)Man(a1-3)[Neu5Ac(a2-6)Gal(b1-4)GlcNAc(b1-2)Man(a1-6)]Man(b1-4)GlcNAc(b1-4)GlcNAc
Summary of the method: as §1

[4] = molecular target: Neu5Ac(a2-3)Gal(b1-4)GlcNAc(b1-3)Gal(b1-3)GlcNAc
Summary of the method: as §1

[5] = molecular target: Neu5Ac(a2-3)Gal(b1-4)GlcNAc(b1-3)Gal(b1-4)GlcNAc
Summary of the method: as §1

[6] = molecular target: Neu5Ac(a2-3)Gal(b1-4)GlcNAc(b1-3)Gal(b1-4)GlcNAc(b1-3)Gal(b1-4)GlcNAc
Summary of the method: as §1

[7] = molecular target: Neu5Ac(a2-3)Gal(b1-4)GlcNAc(b1-3)Gal(b1-4)[Fuc(a1-3)]GlcNAc
Summary of the method: as §1

[8] = molecular target: Neu5Ac(a2-3)Gal(b1-4)GlcNAc(b1-3)GalNAc
Summary of the method: as §1

[9] = molecular target: Neu5Ac(a2-3)Gal(b1-4)GlcNAc(b1-6)[Gal(b1-3)]GalNAc
Summary of the method: as §1

[10] = molecular target: Neu5Ac(a2-3)Gal(b1-4)GlcNAc(b1-6)[Neu5Ac(a2-3)Gal(b1-3)]GalNAc
Summary of the method: as §1

[11] = molecular target: Neu5Ac(a2-3)Gal(b1-4)GlcNAc6S
Summary of the method: as §1

[12] = molecular target: Neu5Ac(a2-3)Gal(b1-4)[Fuc(a1-3)]GlcNAc
Summary of the method: as §1

[13] = molecular target: Neu5Ac(a2-3)Gal(b1-4)[Fuc(a1-3)]GlcNAc(b1-3)Gal
Summary of the method: as §1

[14] = molecular target: Neu5Ac(a2-3)Gal(b1-4)[Fuc(a1-3)]GlcNAc(b1-3)Gal(b1-4)GlcNAc
Summary of the method: as §1

[15] = molecular target: Neu5Ac(a2-3)Gal(b1-4)[Fuc(a1-3)]GlcNAc(b1-3)Gal(b1-4)[Fuc(a1-3)]GlcNAc(b1-3)Gal(b1-4)[Fuc(a1-3)]GlcNAc
Summary of the method: as §1

[16] = molecular target: Neu5Ac(a2-3)Gal(b1-4)[Fuc(a1-3)]GlcNAc(b1-3)GalNAc
Summary of the method: as §1

[17] = molecular target: Neu5Ac(a2-3)Gal(b1-4)[Fuc(a1-3)]GlcNAc(b1-6)[Gal(b1-3)]GalNAc
Summary of the method: as §1

[18] = molecular target: Neu5Ac(a2-3)Gal(b1-4)[Fuc(a1-3)]GlcNAc(b1-6)[Neu5Ac(a2-3)Gal(b1-3)]GalNAc
Summary of the method: as §1

[19] = molecular target: Neu5Ac(a2-3)Gal(b1-4)[Fuc(a1-3)]GlcNAc6S
Summary of the method: as §1

[20] = molecular target: Neu5Ac(a2-3)Gal6S(b1-4)GlcNAc
Summary of the method: as §1

[21] = molecular target: Neu5Ac(a2-3)Gal6S(b1-4)[Fuc(a1-3)]GlcNAc
Summary of the method: as §1

Neu5Ac(a2-3)GalNAc = molecular target: Neu5Ac(a2-3)GalNAc
Summary of the method: as §1

[22] = molecular target: Neu5Ac(a2-3)GalNAc(b1-4)GlcNAc
Summary of the method: as §1

[23] = molecular target: Neu5Ac(a2-3)[GalNAc(b1-4)]Gal(b1-4)Glc
Summary of the method: as §1

[24] = molecular target: Neu5Ac(a2-3)[GalNAc(b1-4)]Gal(b1-4)GlcNAc
Summary of the method: as §1

[25] = molecular target: Neu5Ac(a2-3)[GalNAc(b1-4)]Gal(b1-4)GlcNAc(b1-3)GalNAc
Summary of the method: as §1

[26] = molecular target: Neu5Ac(a2-3)[Neu5Ac(a2-6)]GalNAc
Summary of the method: as §1

Neu5Ac(a2-6)Gal = molecular target: Neu5Ac(a2-6)Gal
Summary of the method: as §1

Neu5Ac(a2-6)Gal(b1-4)Glc = molecular target: Neu5Ac(a2-6)Gal(b1-4)Glc
Summary of the method: as §1

[27] = molecular target: Neu5Ac(a2-6)Gal(b1-4)GlcNAc
Summary of the method: as §1

[28] = molecular target: Neu5Ac(a2-6)Gal(b1-4)GlcNAc(b1-2)Man(a1-3)Man(b1-4)GlcNAc(b1-4)GlcNAc
Summary of the method: as §1

[29] = molecular target: Neu5Ac(a2-6)Gal(b1-4)GlcNAc(b1-2)Man(a1-3)[Gal(b1-4)GlcNAc(b1-2)Man(a1-6)]Man(b1-4)GlcNAc(b1-4)GlcNAc
Summary of the method: as §1

[30] = molecular target: Neu5Ac(a2-6)Gal(b1-4)GlcNAc(b1-2)Man(a1-3)[GlcNAc(b1-2)Man(a1-6)]Man(b1-4)GlcNAc(b1-4)GlcNAc
Summary of the method: as §1

[31] = molecular target: Neu5Ac(a2-6)Gal(b1-4)GlcNAc(b1-2)Man(a1-3)[GlcNAc(b1-2)Man(b1-4)GlcNAc(b1-2)Man(a1-6)]Man(b1-4)GlcNAc(b1-4)GlcNAc
Summary of the method: as §1

[32] = molecular target: Neu5Ac(a2-6)Gal(b1-4)GlcNAc(b1-2)Man(a1-3)[Man(a1-6)]Man(b1-4)GlcNAc(b1-4)GlcNAc
Summary of the method: as §1

B1: PEB1 (Campylobacter jejuni), Q0P9X8 (protein)
chain: MVFRKSLLKLAVFALGACVAFSNANAAEGKLESIKSKGQLIVGVKNDVPHYALLDQATGEIKGFEVDVAKLLAKSILGDDKKIKLVAVNAKTRGPLLDNGSVDAVIATFTITPERKRIYNFSEPYYQDAIGLLVLKEKKYKSLADMKGANIGVAQAATTKKAIGEAAKKIGIDVKFSEFPDYPSIKAALDAKRVDAFSVDKSILLGYVDDKSEILPDSFEPQSYGIVTKKDDPAFAKYVDDFVKEHKNEIDALAKKWGL
**Q.** What does the source list for B1?
**A.** glycan array binding signal (z-score) [1]: -0.717; glycan array binding signal (z-score) [2]: 1.14; glycan array binding signal (z-score) [3]: 0.159; glycan array binding signal (z-score) [4]: -1.47; glycan array binding signal (z-score) [5]: 0.401; glycan array binding signal (z-score) [6]: -0.364; glycan array binding signal (z-score) [7]: -0.941; glycan array binding signal (z-score) [8]: -0.182; glycan array binding signal (z-score) [9]: -0.101; glycan array binding signal (z-score) [10]: 0.229; glycan array binding signal (z-score) [11]: -0.243; glycan array binding signal (z-score) [12]: 0.017; glycan array binding signal (z-score) [13]: -0.603; glycan array binding signal (z-score) [14]: 3.14; glycan array binding signal (z-score) [15]: -1.09; glycan array binding signal (z-score) [16]: 8.24; glycan array binding signal (z-score) [17]: 0.995; glycan array binding signal (z-score) [18]: 3.1; glycan array binding signal (z-score) [19]: -0.345; glycan array binding signal (z-score) [20]: 0.114; glycan array binding signal (z-score) [21]: 0.533; glycan array binding signal (z-score) (Neu5Ac(a2-3)GalNAc): -0.404; glycan array binding signal (z-score) [22]: -0.108; glycan array binding signal (z-score) [23]: 1.22; glycan array binding signal (z-score) [24]: -0.934; glycan array binding signal (z-score) [25]: -0.77; glycan array binding signal (z-score) [26]: -0.361; glycan array binding signal (z-score) (Neu5Ac(a2-6)Gal): 1.7; glycan array binding signal (z-score) (Neu5Ac(a2-6)Gal(b1-4)Glc): 0.452; glycan array binding signal (z-score) [27]: -0.292; glycan array binding signal (z-score) [28]: -0.088; glycan array binding signal (z-score) [29]: 1.62; glycan array binding signal (z-score) [30]: 0.318; glycan array binding signal (z-score) [31]: 0.025; glycan array binding signal (z-score) [32]: -0.541
